± gives the standard deviation of the averaged measurements. The list shows a part of the results.
Compound: Nc1nc2c(ncn2[C@@H]2O[C@H](COP(=O)(O)OP(=O)(O)OP(=O)(O)O)[C@@H](O)[C@H]2O)c(=O)[nH]1 [guanosine triphosphate]
Test: NP40-soluble protein abundance relative to vehicle (solubility fold change) (ratio); higher = more soluble protein in presence of GTP
How it was run: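 Eight concentrations, 0.1 to 10 mM, were tested on Jurkat crude lysate for 10 min at room temperature and then 3 min at 37 °C, in three independent experiments. The lysate was solubilised with 0.8% NP40 and benzonase, ultracentrifuged, and the supernatant TMT-labelled for LC-MS/MS. Each value is the fold change against the detergent-processed vehicle in its own replicate, from vsn-normalised intensities.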

Protein sequences, listed by entry. Tags and fused reporters are not part of them. Lines headed by an entry give the natural chain unless they say otherwise; changes in a name come on top.
UniProt Q96FJ2, whole entry: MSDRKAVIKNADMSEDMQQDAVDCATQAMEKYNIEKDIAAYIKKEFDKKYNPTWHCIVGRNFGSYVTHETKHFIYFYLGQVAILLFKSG
UniProt Q8WXI9: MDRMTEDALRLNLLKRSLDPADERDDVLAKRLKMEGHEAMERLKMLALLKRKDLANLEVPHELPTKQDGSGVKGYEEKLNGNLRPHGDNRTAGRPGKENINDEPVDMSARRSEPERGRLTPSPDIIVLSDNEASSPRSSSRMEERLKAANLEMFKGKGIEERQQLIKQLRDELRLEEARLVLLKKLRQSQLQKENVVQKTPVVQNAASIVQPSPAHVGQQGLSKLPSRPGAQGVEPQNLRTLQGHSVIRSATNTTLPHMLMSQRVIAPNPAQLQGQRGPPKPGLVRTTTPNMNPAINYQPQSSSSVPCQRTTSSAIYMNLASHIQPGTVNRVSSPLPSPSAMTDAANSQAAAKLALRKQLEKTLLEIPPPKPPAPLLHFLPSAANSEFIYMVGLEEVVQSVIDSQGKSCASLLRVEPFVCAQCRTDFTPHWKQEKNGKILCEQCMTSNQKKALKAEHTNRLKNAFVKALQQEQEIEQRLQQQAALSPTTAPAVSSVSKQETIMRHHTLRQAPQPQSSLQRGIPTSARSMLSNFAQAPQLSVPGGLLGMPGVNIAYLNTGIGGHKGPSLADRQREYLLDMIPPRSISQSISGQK
UniProt Q96HY7: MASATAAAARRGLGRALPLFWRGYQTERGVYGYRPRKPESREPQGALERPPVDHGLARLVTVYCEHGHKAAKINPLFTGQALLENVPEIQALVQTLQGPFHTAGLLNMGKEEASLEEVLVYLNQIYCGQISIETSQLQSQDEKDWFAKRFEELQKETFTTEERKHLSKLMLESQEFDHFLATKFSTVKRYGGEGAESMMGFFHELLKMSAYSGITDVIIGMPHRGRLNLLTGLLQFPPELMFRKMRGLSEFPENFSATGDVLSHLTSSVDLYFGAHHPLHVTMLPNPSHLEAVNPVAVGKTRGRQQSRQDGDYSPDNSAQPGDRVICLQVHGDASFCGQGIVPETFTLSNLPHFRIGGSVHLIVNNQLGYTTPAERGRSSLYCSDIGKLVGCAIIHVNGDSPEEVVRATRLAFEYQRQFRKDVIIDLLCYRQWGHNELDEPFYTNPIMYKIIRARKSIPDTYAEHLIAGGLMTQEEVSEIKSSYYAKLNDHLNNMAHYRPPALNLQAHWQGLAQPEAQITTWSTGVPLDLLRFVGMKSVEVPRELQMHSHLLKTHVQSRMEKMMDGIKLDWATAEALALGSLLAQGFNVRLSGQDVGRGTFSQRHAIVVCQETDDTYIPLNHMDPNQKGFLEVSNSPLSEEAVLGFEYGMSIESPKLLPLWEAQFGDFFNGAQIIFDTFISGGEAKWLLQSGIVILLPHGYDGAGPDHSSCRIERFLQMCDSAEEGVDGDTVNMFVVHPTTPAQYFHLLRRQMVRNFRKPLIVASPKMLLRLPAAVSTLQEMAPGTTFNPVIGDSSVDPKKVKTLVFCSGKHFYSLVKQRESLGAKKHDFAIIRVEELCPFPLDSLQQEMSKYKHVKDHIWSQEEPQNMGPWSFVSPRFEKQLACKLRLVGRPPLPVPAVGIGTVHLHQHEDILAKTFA
UniProt Q92575: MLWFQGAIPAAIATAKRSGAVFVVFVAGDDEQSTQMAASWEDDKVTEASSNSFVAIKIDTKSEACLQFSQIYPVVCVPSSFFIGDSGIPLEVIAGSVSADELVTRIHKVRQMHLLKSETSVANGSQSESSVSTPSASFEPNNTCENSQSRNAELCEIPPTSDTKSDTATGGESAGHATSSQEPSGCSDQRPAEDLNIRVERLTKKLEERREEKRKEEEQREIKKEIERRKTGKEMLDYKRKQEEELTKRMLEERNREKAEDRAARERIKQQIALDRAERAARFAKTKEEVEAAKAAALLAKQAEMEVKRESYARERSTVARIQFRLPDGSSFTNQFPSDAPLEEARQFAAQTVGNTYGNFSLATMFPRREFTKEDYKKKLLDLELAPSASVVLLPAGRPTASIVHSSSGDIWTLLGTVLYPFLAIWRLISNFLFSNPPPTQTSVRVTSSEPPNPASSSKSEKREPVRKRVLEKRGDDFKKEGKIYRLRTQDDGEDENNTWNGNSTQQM
UniProt Q8WY54: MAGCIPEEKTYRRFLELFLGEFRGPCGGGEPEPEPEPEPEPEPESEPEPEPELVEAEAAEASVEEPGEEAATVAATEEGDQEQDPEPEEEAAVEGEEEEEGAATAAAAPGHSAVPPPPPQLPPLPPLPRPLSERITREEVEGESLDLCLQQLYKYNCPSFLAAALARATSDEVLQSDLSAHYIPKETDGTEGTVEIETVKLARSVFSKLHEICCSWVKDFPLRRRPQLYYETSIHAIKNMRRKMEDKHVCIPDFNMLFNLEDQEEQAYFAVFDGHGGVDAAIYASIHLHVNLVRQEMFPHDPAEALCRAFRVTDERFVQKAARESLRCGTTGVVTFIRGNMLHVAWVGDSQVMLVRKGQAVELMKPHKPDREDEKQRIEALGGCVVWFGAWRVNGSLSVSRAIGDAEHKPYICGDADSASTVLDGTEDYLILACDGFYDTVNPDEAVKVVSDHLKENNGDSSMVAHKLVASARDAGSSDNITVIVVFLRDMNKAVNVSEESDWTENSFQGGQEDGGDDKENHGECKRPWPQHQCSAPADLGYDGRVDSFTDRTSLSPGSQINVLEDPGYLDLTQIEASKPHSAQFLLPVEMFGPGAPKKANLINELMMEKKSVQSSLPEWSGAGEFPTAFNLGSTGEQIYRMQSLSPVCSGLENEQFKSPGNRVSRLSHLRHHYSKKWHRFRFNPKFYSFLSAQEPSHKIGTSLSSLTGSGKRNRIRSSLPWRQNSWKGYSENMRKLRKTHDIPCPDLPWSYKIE
UniProt Q96G28: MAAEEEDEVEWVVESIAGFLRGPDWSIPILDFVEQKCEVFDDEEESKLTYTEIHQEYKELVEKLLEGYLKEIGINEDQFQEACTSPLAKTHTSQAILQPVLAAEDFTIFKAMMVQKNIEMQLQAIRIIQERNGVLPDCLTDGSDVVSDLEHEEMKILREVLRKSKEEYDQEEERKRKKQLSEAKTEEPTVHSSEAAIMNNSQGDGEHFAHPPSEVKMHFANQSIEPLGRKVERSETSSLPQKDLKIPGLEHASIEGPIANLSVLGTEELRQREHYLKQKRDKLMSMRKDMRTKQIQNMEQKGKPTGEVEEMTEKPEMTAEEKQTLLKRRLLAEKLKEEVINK
UniProt Q969X5: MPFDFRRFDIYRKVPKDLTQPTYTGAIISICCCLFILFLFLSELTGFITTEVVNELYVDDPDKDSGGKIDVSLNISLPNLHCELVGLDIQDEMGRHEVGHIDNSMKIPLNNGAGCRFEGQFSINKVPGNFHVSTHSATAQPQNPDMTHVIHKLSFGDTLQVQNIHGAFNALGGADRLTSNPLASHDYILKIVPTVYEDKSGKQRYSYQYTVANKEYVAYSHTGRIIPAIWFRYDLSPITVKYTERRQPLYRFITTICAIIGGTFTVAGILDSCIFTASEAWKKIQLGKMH
UniProt Q92889: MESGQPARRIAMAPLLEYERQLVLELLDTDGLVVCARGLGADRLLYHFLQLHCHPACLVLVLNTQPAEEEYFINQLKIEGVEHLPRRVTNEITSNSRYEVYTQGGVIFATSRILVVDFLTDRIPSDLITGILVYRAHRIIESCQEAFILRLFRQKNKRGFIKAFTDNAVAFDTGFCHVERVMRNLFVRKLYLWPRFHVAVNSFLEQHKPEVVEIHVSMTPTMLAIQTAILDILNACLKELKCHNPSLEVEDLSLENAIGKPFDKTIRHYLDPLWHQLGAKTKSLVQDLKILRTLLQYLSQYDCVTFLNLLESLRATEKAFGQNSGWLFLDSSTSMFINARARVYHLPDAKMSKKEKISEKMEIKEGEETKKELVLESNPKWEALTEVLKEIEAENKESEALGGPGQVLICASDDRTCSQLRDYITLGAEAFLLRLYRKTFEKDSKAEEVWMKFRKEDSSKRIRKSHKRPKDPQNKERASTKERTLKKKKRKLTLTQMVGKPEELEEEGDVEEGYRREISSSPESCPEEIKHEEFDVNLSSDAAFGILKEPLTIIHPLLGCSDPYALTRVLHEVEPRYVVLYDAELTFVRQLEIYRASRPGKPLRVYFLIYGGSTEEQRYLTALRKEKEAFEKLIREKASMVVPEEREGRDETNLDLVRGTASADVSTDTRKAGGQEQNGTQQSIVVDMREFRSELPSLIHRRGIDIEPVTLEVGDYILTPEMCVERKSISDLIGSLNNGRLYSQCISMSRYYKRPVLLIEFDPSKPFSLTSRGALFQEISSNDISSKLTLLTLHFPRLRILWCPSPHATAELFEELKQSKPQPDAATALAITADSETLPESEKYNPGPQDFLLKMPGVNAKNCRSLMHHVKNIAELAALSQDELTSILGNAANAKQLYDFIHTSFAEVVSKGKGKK
UniProt Q8WUB8: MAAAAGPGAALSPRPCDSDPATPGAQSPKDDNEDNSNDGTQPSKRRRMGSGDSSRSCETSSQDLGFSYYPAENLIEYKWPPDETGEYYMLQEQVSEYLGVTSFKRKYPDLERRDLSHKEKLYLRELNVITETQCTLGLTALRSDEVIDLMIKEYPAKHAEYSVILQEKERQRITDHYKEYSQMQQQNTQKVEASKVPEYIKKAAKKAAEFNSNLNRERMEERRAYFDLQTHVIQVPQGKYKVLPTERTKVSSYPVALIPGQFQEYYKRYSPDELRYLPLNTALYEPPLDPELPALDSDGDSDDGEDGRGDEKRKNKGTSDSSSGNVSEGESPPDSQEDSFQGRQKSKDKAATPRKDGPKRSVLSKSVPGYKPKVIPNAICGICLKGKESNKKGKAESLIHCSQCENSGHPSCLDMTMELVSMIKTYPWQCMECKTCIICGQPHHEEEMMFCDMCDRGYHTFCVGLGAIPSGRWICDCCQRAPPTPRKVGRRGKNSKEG
UniProt Q969R5, whole entry: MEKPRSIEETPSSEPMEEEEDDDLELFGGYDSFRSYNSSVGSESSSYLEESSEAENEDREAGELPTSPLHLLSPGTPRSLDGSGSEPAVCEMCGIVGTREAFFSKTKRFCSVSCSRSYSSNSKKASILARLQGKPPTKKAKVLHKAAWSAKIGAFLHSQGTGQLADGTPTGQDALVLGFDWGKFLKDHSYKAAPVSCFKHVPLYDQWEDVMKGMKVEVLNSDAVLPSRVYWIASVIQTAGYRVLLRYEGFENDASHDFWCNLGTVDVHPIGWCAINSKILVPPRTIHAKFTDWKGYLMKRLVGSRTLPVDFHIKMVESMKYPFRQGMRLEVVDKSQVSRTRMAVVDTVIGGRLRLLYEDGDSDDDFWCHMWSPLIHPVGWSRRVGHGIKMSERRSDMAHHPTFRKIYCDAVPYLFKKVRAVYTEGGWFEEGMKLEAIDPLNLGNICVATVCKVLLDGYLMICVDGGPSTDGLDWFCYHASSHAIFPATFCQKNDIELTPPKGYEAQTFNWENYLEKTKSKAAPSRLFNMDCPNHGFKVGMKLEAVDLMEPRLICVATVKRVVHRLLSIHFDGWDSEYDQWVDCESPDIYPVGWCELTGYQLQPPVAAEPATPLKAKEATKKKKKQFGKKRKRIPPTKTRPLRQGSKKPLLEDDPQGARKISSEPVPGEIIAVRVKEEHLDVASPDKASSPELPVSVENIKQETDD
UniProt Q8WVD3: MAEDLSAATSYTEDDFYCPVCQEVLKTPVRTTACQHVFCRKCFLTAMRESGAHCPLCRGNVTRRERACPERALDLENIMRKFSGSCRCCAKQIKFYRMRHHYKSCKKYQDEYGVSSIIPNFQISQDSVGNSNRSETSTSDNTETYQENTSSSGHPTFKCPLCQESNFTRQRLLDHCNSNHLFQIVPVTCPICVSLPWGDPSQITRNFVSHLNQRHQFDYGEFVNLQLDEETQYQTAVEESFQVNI
UniProt Q92600, whole entry: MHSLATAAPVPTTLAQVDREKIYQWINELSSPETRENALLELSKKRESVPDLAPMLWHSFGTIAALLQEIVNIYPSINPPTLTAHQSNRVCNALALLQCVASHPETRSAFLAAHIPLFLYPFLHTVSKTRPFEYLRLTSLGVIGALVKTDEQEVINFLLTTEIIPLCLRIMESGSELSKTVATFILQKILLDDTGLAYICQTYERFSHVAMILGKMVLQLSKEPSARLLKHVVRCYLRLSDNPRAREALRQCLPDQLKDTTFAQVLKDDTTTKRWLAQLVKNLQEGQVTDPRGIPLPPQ
UniProt Q96ER9: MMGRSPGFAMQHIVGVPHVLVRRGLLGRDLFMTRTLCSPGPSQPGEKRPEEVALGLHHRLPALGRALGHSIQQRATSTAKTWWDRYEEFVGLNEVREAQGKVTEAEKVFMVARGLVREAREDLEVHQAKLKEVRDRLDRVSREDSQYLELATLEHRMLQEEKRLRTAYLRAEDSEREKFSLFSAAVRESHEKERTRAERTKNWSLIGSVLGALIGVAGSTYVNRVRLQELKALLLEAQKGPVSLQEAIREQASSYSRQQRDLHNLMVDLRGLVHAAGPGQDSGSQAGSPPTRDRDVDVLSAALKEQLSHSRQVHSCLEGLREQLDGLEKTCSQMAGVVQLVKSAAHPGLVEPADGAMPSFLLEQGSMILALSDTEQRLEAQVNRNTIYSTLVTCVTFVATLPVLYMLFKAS

Target	NP40-soluble protein abundance (concentration: 0.1mM)	NP40-soluble protein abundance (concentration: 0.5mM)	NP40-soluble protein abundance (concentration: 1mM)	NP40-soluble protein abundance (concentration: 2mM)	NP40-soluble protein abundance (concentration: 4mM)	NP40-soluble protein abundance (concentration: 6mM)	NP40-soluble protein abundance (concentration: 8mM)	NP40-soluble protein abundance (concentration: 10mM)
NUP133 (UniProt Q8WUM0)	1.04 ± 0.018	1.06 ± 0.053	1.05 ± 0.072	1.06 ± 0.078	1.09 ± 0.073	1.1 ± 0.093	1.1 ± 0.073	1.12 ± 0.086
UniProt Q96FJ2	0.875 ± 0.063	0.83 ± 0.033	1.07 ± 0.12	1.06 ± 0.081	1.18 ± 0.1	1.03 ± 0.11	1.05 ± 0.087	1.18 ± 0.17
GATAD2B (UniProt Q8WXI9)	0.999 ± 0.062	1 ± 0.045	1.17 ± 0.12	1.19 ± 0.088	1.21 ± 0.16	1.24 ± 0.13	1.29 ± 0.18	1.35 ± 0.23
RAB2B (UniProt Q8WUD1)	1 ± 0.085	0.986 ± 0.064	0.972 ± 0.1	0.925 ± 0.14	1 ± 0.094	0.896 ± 0.056	0.946 ± 0.12	0.927 ± 0.1
SIPA1 (UniProt Q96FS4)	1.03 ± 0.12	1.03 ± 0.079	1.08 ± 0.057	1.12 ± 0.1	1.09 ± 0.14	1.22 ± 0.15	1.26 ± 0.079	1.13 ± 0.067
UniProt Q96BN2	1.11 ± 0.054	1.05 ± 0.07	1.18 ± 0.056	1.21 ± 0.04	1.3 ± 0.051	1.27 ± 0.099	1.31 ± 0.13	1.29 ± 0.079
UniProt Q96B36 and related entries	0.849 ± 0.034	0.763 ± 0.064	0.894 ± 0.02	0.842 ± 0.015	0.7714 ± 0.007	0.7802 ± 0.0027	0.748 ± 0.12	0.831 ± 0.028
LEO1 (UniProt Q8WVC0)	0.97 ± 0.092	0.98 ± 0.091	0.983 ± 0.09	0.952 ± 0.099	0.965 ± 0.098	0.934 ± 0.07	0.928 ± 0.1	0.846 ± 0.14
UniProt Q92552 and related entries	1.09 ± 0.062	1.15 ± 0.15	1.21 ± 0.19	1.27 ± 0.23	1.29 ± 0.26	1.23 ± 0.25	1.25 ± 0.28	1.17 ± 0.27
DHTKD1 (UniProt Q96HY7)	1.1 ± 0.1	1.1 ± 0.03	1.05 ± 0.069	1.03 ± 0.06	1.01 ± 0.039	1.05 ± 0.1	1.01 ± 0.057	0.969 ± 0.069
UBXN4 (UniProt Q92575)	0.946 ± 0.085	0.95 ± 0.089	0.906 ± 0.058	0.881 ± 0.059	0.876 ± 0.067	0.904 ± 0.088	0.858 ± 0.062	0.848 ± 0.088
UniProt Q96K58 and related entries	0.983 ± 0.033	0.943 ± 0.074	1 ± 0.042	0.9476 ± 0.0083	0.938 ± 0.1	0.964 ± 0.019	0.939 ± 0.059	0.9641 ± 9.1e-05
UniProt Q8WY54 and related entries	0.968 ± 0.28	0.963 ± 0.12	0.963 ± 0.24	1.08 ± 0.29	0.956 ± 0.28	0.908 ± 0.25	0.869 ± 0.32	0.981 ± 0.29
UniProt Q96G28 and related entries	0.842 ± 0.024	0.856 ± 0.057	0.967 ± 0.058	0.939 ± 0.064	0.854 ± 0.045	0.918 ± 0.1	0.895 ± 0.1	0.945 ± 0.067
UniProt Q969X5 and related entries	1 ± 0.037	1.02 ± 0.044	0.894 ± 0.049	0.899 ± 0.05	0.895 ± 0.033	0.912 ± 0.032	0.864 ± 0.074	0.823 ± 0.05
ERCC4 (UniProt Q92889)	1.06 ± 0.067	1.04 ± 0.11	1.08 ± 0.082	1.09 ± 0.043	1 ± 0.12	1.05 ± 0.1	1.02 ± 0.11	1.02 ± 0.053
UniProt Q96F24 and related entries	1 ± 0.026	0.933 ± 0.033	1.04 ± 0.089	1.08 ± 0.049	1.04 ± 0.076	1.02 ± 0.024	1.11 ± 0.015	1.13 ± 0.078
UniProt Q8WUB8 and related entries	1 ± 0.013	1.06 ± 0.066	1.084 ± 0.0075	1.19 ± 0.059	1.27 ± 0.12	1.25 ± 0.13	1.27 ± 0.15	1.36 ± 0.19
UniProt Q96AE4 and related entries	0.895 ± 0.039	0.878 ± 0.075	0.93 ± 0.065	0.886 ± 0.1	0.877 ± 0.073	0.89 ± 0.086	0.869 ± 0.08	0.903 ± 0.07
TFB1M (UniProt Q8WVM0)	1.11 ± 0.096	1.12 ± 0.18	1.01 ± 0.03	1.17 ± 0.19	1.177 ± 0.0012	1.27 ± 0.17	1.32 ± 0.22	1.27 ± 0.17
UniProt Q96F44 and related entries	1.03 ± 0.13	1.09 ± 0.047	1.05 ± 0.093	1.06 ± 0.036	1.02 ± 0.08	1.07 ± 0.053	1.05 ± 0.11	1.02 ± 0.048
L3MBTL2 (UniProt Q969R5)	0.99 ± 0.17	1.08 ± 0.031	0.98 ± 0.21	1.06 ± 0.15	1.08 ± 0.12	1.05 ± 0.12	1.04 ± 0.098	1.06 ± 0.2
UniProt Q96JK2 and related entries	1.18 ± 0.092	1.15 ± 0.088	1.07 ± 0.066	1.13 ± 0.08	1.14 ± 0.1	1.03 ± 0.095	1.09 ± 0.07	1.01 ± 0.071
RNF138 (UniProt Q8WVD3)	1.06 ± 0.049	1.05 ± 0.022	1.04 ± 0.017	1.04 ± 0.069	1.07 ± 0.051	1.06 ± 0.049	1.09 ± 0.073	1.09 ± 0.026
UniProt Q92600 and related entries	0.829 ± 0.1	0.907 ± 0.02	0.952 ± 0.086	1.1 ± 0.23	1.21 ± 0.43	1.37 ± 0.26	1.07 ± 0.014	1.52 ± 0.37
UniProt Q96CV9 and related entries	0.921 ± 0.055	0.93 ± 0.096	0.934 ± 0.036	0.896 ± 0.088	0.881 ± 0.12	0.907 ± 0.069	0.919 ± 0.08	0.928 ± 0.063
UniProt Q92734 and related entries	0.962 ± 0.023	0.954 ± 0.015	0.975 ± 0.026	0.961 ± 0.035	0.939 ± 0.037	0.952 ± 0.036	0.954 ± 0.015	0.987 ± 0.03
CCDC51 (UniProt Q96ER9)	1.08 ± 0.094	1.07 ± 0.034	1.17 ± 0.091	1.05 ± 0.048	1.14 ± 0.067	1.11 ± 0.051	1.06 ± 0.084	1.07 ± 0.058
UniProt Q96BW9 and related entries	1.05 ± 0.047	1.06 ± 0.036	1 ± 0.057	1.09 ± 0.013	1.024 ± 0.0028	1.01 ± 0.038	0.92 ± 0.016	0.909 ± 0.015
PTCD3 (UniProt Q96EY7)	1.06 ± 0.036	1.16 ± 0.15	1.18 ± 0.18	1.26 ± 0.21	1.28 ± 0.27	1.2 ± 0.26	1.18 ± 0.23	1.12 ± 0.22

Two entries from above, reformatted.
UniProt Q96BN2
  NP40-soluble protein abundance (concentration: 0.1mM): 1.11 ± 0.054
  NP40-soluble protein abundance (concentration: 0.5mM): 1.05 ± 0.07
  NP40-soluble protein abundance (concentration: 1mM): 1.18 ± 0.056
  NP40-soluble protein abundance (concentration: 2mM): 1.21 ± 0.04
  NP40-soluble protein abundance (concentration: 4mM): 1.3 ± 0.051
  NP40-soluble protein abundance (concentration: 6mM): 1.27 ± 0.099
  NP40-soluble protein abundance (concentration: 8mM): 1.31 ± 0.13
  NP40-soluble protein abundance (concentration: 10mM): 1.29 ± 0.079
UniProt Q96B36 and related entries
  NP40-soluble protein abundance (concentration: 0.1mM): 0.849 ± 0.034
  NP40-soluble protein abundance (concentration: 0.5mM): 0.763 ± 0.064
  NP40-soluble protein abundance (concentration: 1mM): 0.894 ± 0.02
  NP40-soluble protein abundance (concentration: 2mM): 0.842 ± 0.015
  NP40-soluble protein abundance (concentration: 4mM): 0.7714 ± 0.007
  NP40-soluble protein abundance (concentration: 6mM): 0.7802 ± 0.0027
  NP40-soluble protein abundance (concentration: 8mM): 0.748 ± 0.12
  NP40-soluble protein abundance (concentration: 10mM): 0.831 ± 0.028

From the supplement of paper PMC6411743
